# Results published in the supplement of paper PMC9135407.
# Where “and” joins values, the source holds several entries; their conditions need not be identical. Equal values may be shown once. Where a name gives a salt, the structure may show the parent alone. ± gives the standard deviation of the averaged measurements. The list shows a part of the results. Baselines shift from plate to plate; read single values as rough.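 Culture-activated primary human stellate myofibroblasts, where regained lipid droplets signal inactivation. Value: share of Hoechst-counted cells above a per-plate Bodipy cutoff, in duplicate wells, with DMSO negative and nortriptyline positive controls on each plate. Hits: a control-normalized score above the plate's top-tenth-percentile nortriptyline wells, or one of a plate's three best wells. Final well concentrations are not given.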
# Tested on: primary human hepatic stellate cells (donor 1)
# Experiment: percent Bodipy-positive cells; higher = more lipid droplet accumulation
# Conditions: 48 h
# [1] = library stock concentration: 10 mM
# [2] = library stock concentration: 80 uM
# [3] = library stock concentration: 400 uM
# [4] = library stock concentration: 2 mM
# [5] = library stock concentration: 3.33 mM
# [6] = library stock concentration: 1 mM
# [7] = library stock concentration: 4.4 mM
smiles,measurement,setting,value
O=C(O)Cc1ccc(OCCNC[C@H](O)c2ccccc2)cc1 [ZD 2079 hydrochloride],percent Bodipy-positive cells,[1],7.68 ± 4.4%
CC(C1=C(CCN(C)C)Cc2ccccc21)c1ccccn1 (stereo in doubt) [(S)-(+)-Dimethindene maleate],percent Bodipy-positive cells,[1],25.7 ± 8.3%
Cc1[nH]c(/C=C2\C(=O)Nc3ccc(S(=O)(=O)Cc4c(Cl)cccc4Cl)cc32)c(C)c1C(=O)N1CCC[C@@H]1CN1CCCC1,percent Bodipy-positive cells,[2],99.84 ± 0.23%
same,percent Bodipy-positive cells,[3],100%
same,percent Bodipy-positive cells,[4],100%
CCCCN(Cc1ccc(C(=O)NO)cc1)C(=O)Nc1ccccc1 [Nexturastat A],percent Bodipy-positive cells,[5],37.3 ± 11%
same,percent Bodipy-positive cells,[1],58.4 ± 7.1%
COC(=O)N[C@H](C(=O)N1CCC[C@H]1c1ncc(-c2ccc(-c3ccc(-c4cnc([C@@H]5CCCN5C(=O)[C@@H](NC(=O)OC)C(C)C)[nH]4)cc3)cc2)[nH]1)C(C)C,percent Bodipy-positive cells,[5],33.6 ± 0.97%
COc1cc(N2CCC(N3CCN(C)CC3)CC2)ccc1Nc1ncc(Cl)c(-c2c[nH]c3ccccc23)n1,percent Bodipy-positive cells,[4],64.5 ± 6.5%
same,percent Bodipy-positive cells,[1],74 ± 5.2%
O=C1O/C(=C/Br)CCC1c1cccc2ccccc12 (configuration not stated) [Bromoenol lactone],percent Bodipy-positive cells,[6],10.3 ± 4.3%
Cc1cc(C)c2c(c1)[C@@H](N(Cc1cc(C(F)(F)F)cc(C(F)(F)F)c1)c1nnn(C)n1)CCCN2C[C@H]1CC[C@H](C(=O)O)CC1,percent Bodipy-positive cells,[5],7.92 ± 3.7%
same,percent Bodipy-positive cells,[1],13.2 ± 0.76%
CC1=C(C(=O)Nc2cc3cn[nH]c3cc2F)C(c2ccc(C(F)(F)F)cc2)CC(=O)N1 (configuration not stated),percent Bodipy-positive cells,[2],5.7 ± 3.2%
same,percent Bodipy-positive cells,[3],7.03% and 16.2%
same,percent Bodipy-positive cells,[4],6.64% and 15.2%
same,percent Bodipy-positive cells,[5],5.1 ± 1.7%
CNC(=O)c1ccccc1Nc1nc(Nc2ccc(N3CCOCC3)cc2OC)ncc1Cl,percent Bodipy-positive cells,[2],10.4 ± 2.6%
same,percent Bodipy-positive cells,[3],7.59 ± 1.7%
same,percent Bodipy-positive cells,[4],5.99 ± 3.4%
same,percent Bodipy-positive cells,[5],6.16 ± 2.5%
same,percent Bodipy-positive cells,[1],17.2% and 11.7%
CCCCC[C@H](O)/C=C/[C@@H]1[C@@H](C/C=C\CCCC(=O)OCC(O)CO)[C@@H](O)C[C@H]1O (stereo partly drawn) [Prostaglandin F2.alpha.-1-glyceryl ester],percent Bodipy-positive cells,[6],12.8 ± 6.8%
C[C@@H](N)C1CCC(C(=O)Nc2ccncc2)CC1 (some centres not stated),percent Bodipy-positive cells,[5],11.9 ± 5.2%
COc1cc(/C=C/c2ccc(O)cc2)cc(OC)c1,percent Bodipy-positive cells,[1],11.5 ± 1.2%
CCOC(=O)c1ncn2c1CN(C)C(=O)c1cc(F)ccc1-2 [Flumazenil],percent Bodipy-positive cells,[5],32.9 ± 21%
same,percent Bodipy-positive cells,library stock concentration: 6.6 mM,6.66 ± 0.75%
CCOC(=O)c1ncn2c1CN(C)C(=O)c1cc(F)ccc1-2,percent Bodipy-positive cells,[1],9.51 ± 2.7%
O=NN(CCCl)C(=O)NCCCl [Carmustine],percent Bodipy-positive cells,library stock concentration: 9.3 mM,9.36 ± 2.6%
same,percent Bodipy-positive cells,[1],35.7 ± 14%
O=C(O)C(Cc1c[nH]c2ccccc12)N1C(=O)c2ccccc2C1=O (configuration not stated),percent Bodipy-positive cells,[2],36.9 ± 0.47%
same,percent Bodipy-positive cells,[3],44.4 ± 13%
same,percent Bodipy-positive cells,[4],44.1 ± 3.4%
same,percent Bodipy-positive cells,[5],8.54 ± 0.47%
CCOc1cc(CC(=O)N[C@@H](CC(C)C)c2ccccc2N2CCCCC2)ccc1C(=O)O,percent Bodipy-positive cells,[1],10.2 ± 5.5%
CCOc1cc(CC(=O)N[C@@H](CC(C)C)c2ccccc2N2CCCCC2)ccc1C(=O)O [Repaglinide],percent Bodipy-positive cells,,5.39 ± 1.6%
same,percent Bodipy-positive cells,[5],11.59 ± 0.098%
same,percent Bodipy-positive cells,[7],0.598 ± 0.23%
same,percent Bodipy-positive cells,[1],19.6% and 6.06%
C[C@@H](Oc1cc(-n2cnc3ccc(CN4CCN(C)CC4)cc32)sc1C(N)=O)c1ccccc1C(F)(F)F,percent Bodipy-positive cells,[5],95.6 ± 2.2%
CCOC(=O)C1=C(C)NC(C)=C(C(=O)OCC)C1c1ccccc1/C=C/C(=O)OC(C)(C)C [Lacidipine],percent Bodipy-positive cells,[5],31.7 ± 4.7%
same,percent Bodipy-positive cells,[7],30.62 ± 0.14%
same,percent Bodipy-positive cells,[1],69.4 ± 5.3%
CCOC(=O)C1=C(C)NC(C)=C(C(=O)OCC)C1c1ccccc1/C=C/C(=O)OC(C)(C)C,percent Bodipy-positive cells,[1],47.9 ± 4.3%
Cn1c(=O)n(-c2ccc(C(C)(C)C#N)cc2)c2c3cc(-c4cnc5ccccc5c4)ccc3ncc21,percent Bodipy-positive cells,[2],4.79 ± 1.1%
same,percent Bodipy-positive cells,[3],5.7 ± 1.6%
same,percent Bodipy-positive cells,[4],8.14 ± 3.5%
same,percent Bodipy-positive cells,[1],13.6 ± 2.8%
CCCCC(C)(O)CC=CC1C(O)CC(=O)C1CCCCCCC(=O)OC (configuration not stated) [8-iso Misoprostol],percent Bodipy-positive cells,[6],11.8 ± 0.68%
C[C@H](NC[C@H](O)CP(=O)(O)CC1CCCCC1)c1ccc(Cl)c(Cl)c1,percent Bodipy-positive cells,[1],7.55 ± 2%
CC(C)CCN1C(=O)N(CCN(C)C)C(=O)C12CCN(Cc1cn(C)c3ccccc13)CC2,percent Bodipy-positive cells,[1],80.8 ± 0.97%
CC(C)n1cnc2c(NCc3ccccc3)nc(NCCO)nc21 [N9-Isopropylolomoucine],percent Bodipy-positive cells,library stock concentration: 15.3 mM,23.8 ± 8.6%
O=S(=O)(c1ccccc1)N(CC(F)(F)F)c1ccc(C(O)(C(F)(F)F)C(F)(F)F)cc1,percent Bodipy-positive cells,[6],18 ± 2.6%
same,percent Bodipy-positive cells,[5],19.6 ± 0.5%
Cc1occc(=O)c1O,percent Bodipy-positive cells,[1],6.22 ± 0.14%
NC(CCCP(=O)(O)O)C(=O)O (configuration not stated),percent Bodipy-positive cells,[1],33.5 ± 6.2%
NC(CCCP(=O)(O)O)C(=O)O (stereo not drawn) [D(-)-2-Amino-5-phosphonopentanoic acid],percent Bodipy-positive cells,[1],26.6 ± 5.7%
"CNC(=O)c1cc(Oc2ccc(NC(=O)Nc3ccc(Cl)c(C(F)(F)F)c3)cc2)ccn1 [Sorafenib (Nexavar, BAY43-9006) (10 mM)]",percent Bodipy-positive cells,[1],99.71 ± 0.41%
CCCCN(CCCC)CCC(O)c1cc2c(Cl)cc(Cl)cc2c2cc(C(F)(F)F)ccc12 (configuration not stated) [Halofantrine hydrochloride],percent Bodipy-positive cells,,35.5 ± 7.5%
C#C[C@]1(O)CC[C@H]2[C@@H]3CCc4cc(O)ccc4[C@H]3CC[C@@]21C [Ethinyl Estradiol],percent Bodipy-positive cells,[5],8.32 ± 1.4%
same,percent Bodipy-positive cells,[1],50.6 ± 2%
C#C[C@]1(O)CC[C@H]2[C@@H]3CCc4cc(O)ccc4[C@H]3CC[C@@]21C [Ethinyl estradiol],percent Bodipy-positive cells,library stock concentration: 6.7 mM,39.7 ± 4.6%
same,percent Bodipy-positive cells,[1],9.15 ± 2%
C#C[C@]1(O)CC[C@H]2[C@@H]3CCc4cc(O)ccc4[C@H]3CC[C@@]21C,percent Bodipy-positive cells,[1],39.5 ± 7.1%
"COc1cc(F)c(F)c(Nc2ccc(I)cc2F)c1NS(=O)(=O)C1(C[C@H](O)CO)CC1 [Refametinib (RDEA119, Bay 86-9766)]",percent Bodipy-positive cells,[5],7.46 ± 1.1%
same,percent Bodipy-positive cells,[1],26.4 ± 16%
CCCCCN(CCCCC)C(=O)C(CCC(=O)O)NC(=O)c1ccc(Cl)c(Cl)c1 (configuration not stated) [Lorglumide],percent Bodipy-positive cells,[7],7.01 ± 2.3%
CCCCCN(CCCCC)C(=O)C(CCC(=O)O)NC(=O)c1ccc(Cl)c(Cl)c1 (configuration not stated) [Lorglumide sodium],percent Bodipy-positive cells,[1],42 ± 3.5%
CCCCCN(CCCCC)C(=O)C(CCC(=O)O)NC(=O)c1ccc(Cl)c(Cl)c1 (configuration not stated) [Lorglumide sodium salt],percent Bodipy-positive cells,,6.49 ± 3.2%
NC1CC1c1ccc(-c2cccc(O)c2)cc1 (configuration not stated),percent Bodipy-positive cells,[5],48.5 ± 8.5%
same,percent Bodipy-positive cells,[1],72.14 ± 0.68%
Oc1ccc(-c2c(-c3ccccc3)nn3c(C(F)(F)F)cc(C(F)(F)F)nc23)cc1,percent Bodipy-positive cells,[1],9.85 ± 8.7%
"COc1cc2ncnc(Nc3ccc(F)c(Cl)c3)c2cc1OCCCN1CCOCC1 [Gefitinib (ZD1839, Iressa) (10 mM)]",percent Bodipy-positive cells,[1],85.2 ± 12%
"COc1cc2ncnc(Nc3ccc(F)c(Cl)c3)c2cc1OCCCN1CCOCC1 [Gefitinib (ZD1839, Iressa) (2 mM)]",percent Bodipy-positive cells,[4],69.4 ± 9.7%
CC(C)NCC(O)c1ccc(O)c(O)c1 (stereo not drawn) [S(+)-Isoproterenol (+)-bitartrate],percent Bodipy-positive cells,[1],47.3 ± 13%
CC(C)NCC(O)c1ccc(O)c(O)c1 (configuration not stated) [Isoprenaline HCl],percent Bodipy-positive cells,[5],4.45 ± 1.2%
same,percent Bodipy-positive cells,[1],7.68 ± 1.5%
CC(C)NCC(O)c1ccc(O)c(O)c1 (configuration not stated) [(?)-Isoproterenol hydrochloride],percent Bodipy-positive cells,[1],44.1 ± 5.3%
CC(C)NCC(O)c1ccc(O)c(O)c1 (configuration not stated),percent Bodipy-positive cells,[1],26 ± 1.4%
CC(C)NCC(O)c1ccc(O)c(O)c1 (configuration not stated) [Isoproterenol hydrochloride],percent Bodipy-positive cells,library stock concentration: 8.1 mM,8.17 ± 3.6%
same,percent Bodipy-positive cells,[1],13.1% and 7.95%
CC(C)NCC(O)c1ccc(O)c(O)c1 (stereo not drawn) [R(-)-Isoproterenol (+)-bitartrate],percent Bodipy-positive cells,[1],30.4 ± 4.7%

# Retrieved one by one from the list above:
smiles,measurement,setting,value
CCOC(=O)C1=C(C)NC(C)=C(C(=O)OCC)C1c1ccccc1/C=C/C(=O)OC(C)(C)C [Lacidipine],percent Bodipy-positive cells,[1],69.4 ± 5.3%
C#C[C@]1(O)CC[C@H]2[C@@H]3CCc4cc(O)ccc4[C@H]3CC[C@@]21C,percent Bodipy-positive cells,[1],39.5 ± 7.1%

# An excerpt of these results, bar-delimited.
smiles | measurement | setting | value
CCOC(=O)C1=C(C)NC(C)=C(C(=O)OCC)C1c1ccccc1/C=C/C(=O)OC(C)(C)C [Lacidipine] | percent Bodipy-positive cells | [7] | 30.62 ± 0.14%
same | percent Bodipy-positive cells | [1] | 69.4 ± 5.3%
CCOC(=O)C1=C(C)NC(C)=C(C(=O)OCC)C1c1ccccc1/C=C/C(=O)OC(C)(C)C | percent Bodipy-positive cells | [1] | 47.9 ± 4.3%
Cn1c(=O)n(-c2ccc(C(C)(C)C#N)cc2)c2c3cc(-c4cnc5ccccc5c4)ccc3ncc21 | percent Bodipy-positive cells | [2] | 4.79 ± 1.1%
